PubChem BioAssay AID504744, Drosophila RNAi Screening Center – 2011

- Purpose: 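Uncover factors, including feedback loops, that control dAkt activation in fly cells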 (primary screen)
- Cell system: Drosophila Kc167 cells
- Reagents: long dsRNA against Drosophila genes, 250 ng dsRNA per well of a 384-well plate
- Duration: 3 days of knock-down, then overnight serum-free starvation before stimulation
- Challenge: bovine insulin at 387 nM for 10 minutes after 12 h without serum
- Measured: 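Per-well phospho-dAkt level from an in-cell fluorescent antibody stain, divided by a DNA-dye signal; log2 residuals turned into z-scores that take cell number into account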
- Rule for the call: 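Hit in the insulin screen when the two-replicate mean z-score is more extreme than plus or minus 2.5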
The screen tested about 23,000 reagents; below is an unselected part of those with a known target gene and a result. Of all reagents, 98 (0.43%) are marked active. 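Only hit calls are given; the phospho-dAkt signals, z-scores and hit direction were not deposited.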 A plus sign joins genes that one reagent is predicted to hit.

Target gene	amplicon	activity call
St1	DRSC04504	inactive
CG13893	DRSC08363	inactive
CG3287 (retired record)	DRSC04991	inactive
Vha16-5	DRSC02986	inactive
CG14903	DRSC15024	inactive
CG13186	DRSC06311	inactive
CG14422	DRSC17919	inactive
Sfp53D	DRSC05625	inactive
CG33514	DRSC08471	inactive
CG33514	DRSC08472	inactive
CG33514	DRSC21670	inactive
CG14739	DRSC14959	inactive
CG12498	DRSC18635	inactive
Sgs7	DRSC11281	inactive
Kal1	DRSC15983	inactive
CG3520	DRSC04383	inactive
Pisd	DRSC15935	inactive
Klp64D	DRSC11204	inactive
Oatp26F	DRSC02149	inactive
Oatp26F	DRSC02272	inactive
Oatp26F	DRSC02695	inactive
CG15650	DRSC04241	inactive
CG43672	DRSC19452	inactive
CG43672	DRSC20108	inactive
Vha14-1	DRSC07571	inactive
Sr-CIV	DRSC00575	inactive
omd	DRSC16507	inactive
Tret1-2	DRSC07117	inactive
Rsbp15	DRSC14176	inactive
CG2070	DRSC06814	inactive
CG30050	DRSC05342	inactive
Ino80	DRSC14760	inactive
Ino80	DRSC15333	inactive
Ino80	DRSC15501	inactive
ND-MWFE	DRSC06364	inactive
CG11110	DRSC06037	inactive
CG42505 + CG42504 + CG31358	DRSC15235	inactive
CG42505 + CG42504 + CG31358	DRSC15308	inactive
CG42505 + CG42504 + CG31358	DRSC15309	inactive
Mipp2	DRSC18682	inactive
Rab5	DRSC00777	inactive
uri	DRSC04111	inactive
CG30344	DRSC22510	inactive
CG14174	DRSC10175	inactive
ringer	DRSC10455	inactive
CG34161	DRSC01132	inactive
CG2767	DRSC15451	inactive
aln	DRSC08240	inactive
CG15870	DRSC06588	inactive
CG11155	DRSC17184	inactive
CG11155	DRSC17205	inactive
Cyp308a1	DRSC20238	inactive
Reepl1	DRSC19418	inactive
CG6040	DRSC15954	inactive
mRpL54	DRSC04545	inactive
CG12620	DRSC02177	inactive
Rab8	DRSC11261	inactive
HP1D3csd	DRSC19548	inactive
spin	DRSC07176	inactive
spin	DRSC22271	inactive
sw + Sdic4 + Sdic3 + 2 more	DRSC20696	inactive
CG12992	DRSC19512	inactive
Gal	DRSC03134	inactive
Cyp4d14	DRSC18457	inactive

Part of the list above, reformatted:
CG42505 + CG42504 + CG31358 [DRSC15309] — activity call: inactive
Mipp2 [DRSC18682] — activity call: inactive
Rab5 [DRSC00777] — activity call: inactive
uri [DRSC04111] — activity call: inactive
